Laboratory results as given in patent US20120322150A1, “Mechanism and Method for Regulating Glycogen Synthase Kinase 3 (GSK3)-Related Kinases” (CARNEGIE INSTITUTION OF WASHINGTON, priority 2009, published 2012).
Positions count from the first letter of the chain named. Results are given in words; binding and its absence hold for the method and conditions named. For part of these data: In cells and extracts the contact can be indirect. Some results given as binding are weak or reduced against the parent protein; the word gives no strength. For part of these data: Sequences can lack the tags named with a protein.

By UniProt entry, the sequences of proteins in these tests, tags left out. Where a name states a change or a piece, a line headed by the entry shows the natural chain unless it says otherwise. Residues count along the entry.
UniProt Q944A7, residues 2-512: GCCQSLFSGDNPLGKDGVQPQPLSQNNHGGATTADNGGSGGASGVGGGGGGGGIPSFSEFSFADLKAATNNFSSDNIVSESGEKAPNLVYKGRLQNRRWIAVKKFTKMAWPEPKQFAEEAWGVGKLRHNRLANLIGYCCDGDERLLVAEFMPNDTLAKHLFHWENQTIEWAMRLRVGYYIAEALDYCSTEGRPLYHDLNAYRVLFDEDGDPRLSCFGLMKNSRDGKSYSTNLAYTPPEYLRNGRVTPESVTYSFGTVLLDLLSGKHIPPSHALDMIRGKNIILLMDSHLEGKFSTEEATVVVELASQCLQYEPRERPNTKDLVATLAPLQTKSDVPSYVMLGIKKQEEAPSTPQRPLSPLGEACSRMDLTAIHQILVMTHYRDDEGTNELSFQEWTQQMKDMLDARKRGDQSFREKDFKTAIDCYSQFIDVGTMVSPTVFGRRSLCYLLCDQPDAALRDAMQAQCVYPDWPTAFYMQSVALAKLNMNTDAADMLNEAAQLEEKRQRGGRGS
UniProt Q9LR78: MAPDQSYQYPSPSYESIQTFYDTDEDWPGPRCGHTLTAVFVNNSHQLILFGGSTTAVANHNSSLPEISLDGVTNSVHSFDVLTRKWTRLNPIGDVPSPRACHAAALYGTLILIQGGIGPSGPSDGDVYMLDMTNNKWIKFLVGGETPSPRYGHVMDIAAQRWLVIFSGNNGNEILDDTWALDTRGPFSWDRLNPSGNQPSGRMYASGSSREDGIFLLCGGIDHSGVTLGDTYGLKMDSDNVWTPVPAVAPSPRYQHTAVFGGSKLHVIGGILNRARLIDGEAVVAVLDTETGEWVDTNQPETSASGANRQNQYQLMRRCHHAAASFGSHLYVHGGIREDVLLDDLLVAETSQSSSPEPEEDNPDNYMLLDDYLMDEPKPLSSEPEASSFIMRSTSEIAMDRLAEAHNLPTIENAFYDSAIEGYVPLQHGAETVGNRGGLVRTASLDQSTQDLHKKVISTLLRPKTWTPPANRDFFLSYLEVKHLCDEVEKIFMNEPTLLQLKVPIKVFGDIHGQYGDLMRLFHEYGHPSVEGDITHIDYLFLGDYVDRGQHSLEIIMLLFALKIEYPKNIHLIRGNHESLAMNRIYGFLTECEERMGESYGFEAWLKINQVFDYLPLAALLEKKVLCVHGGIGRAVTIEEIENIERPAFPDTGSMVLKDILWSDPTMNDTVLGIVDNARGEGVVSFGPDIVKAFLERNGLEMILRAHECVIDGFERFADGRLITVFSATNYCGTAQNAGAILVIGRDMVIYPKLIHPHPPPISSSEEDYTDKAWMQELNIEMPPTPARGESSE

Columns and labels:
[1] = target: T1, bin2-1 fused N-terminal half (nYFP) of yellow fluorescence protein (Arabidopsis) (UniProt Q39011); assay: BiFC
T1 sequence (looked up): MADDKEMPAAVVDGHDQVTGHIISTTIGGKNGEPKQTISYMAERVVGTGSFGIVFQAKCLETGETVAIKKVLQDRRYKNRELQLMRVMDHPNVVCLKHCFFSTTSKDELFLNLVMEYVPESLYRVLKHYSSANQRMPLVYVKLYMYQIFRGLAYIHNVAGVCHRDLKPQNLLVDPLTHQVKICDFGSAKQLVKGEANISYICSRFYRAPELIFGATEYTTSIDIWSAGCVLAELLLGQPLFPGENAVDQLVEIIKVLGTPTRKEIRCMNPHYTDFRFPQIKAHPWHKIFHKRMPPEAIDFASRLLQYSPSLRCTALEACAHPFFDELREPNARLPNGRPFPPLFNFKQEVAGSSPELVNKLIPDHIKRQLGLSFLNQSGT

[2] = target: T1, bin2-1 fused N-terminal half (nYFP) of yellow fluorescence protein (Arabidopsis); assay: BiFC (FIG. 14)
[3] = target: BSK1-myc (Arabidopsis) (UniProt Q944A7); assay: co-immunoprecipitation from Arabidopsis with anti-myc, blot with anti-GFP
[4] = target: T2, bin2-1-myc (Arabidopsis) (UniProt Q39011); assay: pull-down with myc-tagged bin2-1 on anti-myc beads from BSU1-YFP plant extract (FIG. 13)
T2 sequence (looked up): T1 sequence (looked up)

[5] = target: T3, BIN2-myc (Arabidopsis) (UniProt Q39011); assay: pull-down with BIN2-myc on anti-myc beads from plant extract
T3 sequence (looked up): T1 sequence (looked up) with K263E

[6] = target: T3, BIN2-myc (Arabidopsis); assay: co-immunoprecipitation from Arabidopsis with anti-myc antibodies, blot with anti-GFP; with or without brassinolide
[7] = target: T3, BIN2-myc (Arabidopsis); assay: co-immunoprecipitation from Arabidopsis, with or without brassinolide
[8] = target: BSK1-myc (Arabidopsis) (UniProt Q944A7); assay: co-immunoprecipitation from Arabidopsis
[9] = target: T3, BIN2-myc (Arabidopsis); assay: pull-down: myc-tagged protein on anti-myc beads incubated with extracts of BSU1-YFP plants
[10] = target: T2, bin2-1-myc (Arabidopsis); assay: as above
[11] = target: T4, BIN2-YFP (Arabidopsis) (UniProt Q39011); assay: co-immunoprecipitation from tobacco leaves with anti-GFP antibody, blot with anti-myc
T4 sequence (looked up): T1 sequence (looked up) with K263E

[12] = target: T4, BIN2-YFP (Arabidopsis); assay: co-immunoprecipitation from tobacco cells

Measured: binding

BSU1 fused to C-terminal half (cYFP) of YFP (from UniProt Q9LR78 1-793) (enzyme)
binds: [1] | [2]

BSU1-YFP (from UniProt Q9LR78 1-793) (enzyme)
not listed: [1] | [2] | [11] | [12]
binds: all other assays above

BSU1-myc (from UniProt Q9LR78 1-793) (enzyme)
binds: [11] | [12]
